# Earlier results as cited in patent US20020128228A1, “Compositions and methods for the treatment of cancer” (priority 2000, published 2002).
# At least one compound was matched to its structure with a doubt left.
# Test system: EMT6 mouse mammary-tumor esterases
# Conditions: compared with potent carbamoylating agents such as BCNU; cited from earlier work
structure (smiles),measurement,value
"Cn1nnc2c(C(N)=O)ncn2c1=O [temozolomide, 8-carbamoyl-3-methyl-imidazo-[5.1.d]-1,2,3,5-tetrazin-4(3H)-one]",inhibitory effect against esterases,weak
